Results: publication PMC4947186

Target: GST-RanBP2 C-terminal region (cyclophilin-like domain)
Assay: pull-down; GST fusions of RanBP2 fragments incubated with flag-SHP protein; bound flag-SHP detected by IB with M2 antibody

binding: binds
B1: flag-SHP protein used in the GST pull-down (protein, UniProt Q62227 1-260)
chain: MSSGQSGVCPCQGSAGRPTILYALLSPSPRTRPVAPASHSHCLCQQQRPVRLCAPHRTCREALDVLAKTVAFLRNLPSFCHLPHEDQRRLLECCWGPLFLLGLAQDAVTFEVAEAPVPSILKKILLEEASSGTQGAQPSDRPQPSLAAVQWLQRCLESFWSLELGPKEYAYLKGTILFNPDVPGLRASCHIAHLQQEAHWALCEVLEPWYPASQGRLARILLMASTLKNIPGTLLVDLFFRPIMGDVDITELLEDMLLLR

These are yes or no findings as the source states them, for the method shown. Binding seen in cells or lysates may run through a third protein. A result given as binding can be weak or reduced; the word gives no strength. Where a sequence is shown, tags or fusion partners need not be part of it.
